{"source": "paper PMC7356157", "about": "(Microorganisms, 2020)", "test_system": "E. coli versus hRBC", "assay": "Therapeutic index (MHC divided by MIC)", "conditions": "MHC divided by average MIC against ATCC E. coli strains", "note": "No end group written: not given here.", "data": [{"substance": "RKKKMKKALQYIKLLKE-NH2 [Peptide 35409-1]", "values": [{"measurement": "TI", "result": "> 17.5"}]}]}
